In patent US20080009479A1, “Tetrahydrobenzazepines as Histamine H3 Receptor Ligands” (GLAXO GROUP LIMITED, priority 2004, published 2008):
Some of these results come from one statement about several compounds together.

Protein sequences, listed by entry. Tags and fused reporters are not part of them. Lines headed by an entry give the natural chain unless they say otherwise; changes in a name come on top.
UniProt Q9Y5N1: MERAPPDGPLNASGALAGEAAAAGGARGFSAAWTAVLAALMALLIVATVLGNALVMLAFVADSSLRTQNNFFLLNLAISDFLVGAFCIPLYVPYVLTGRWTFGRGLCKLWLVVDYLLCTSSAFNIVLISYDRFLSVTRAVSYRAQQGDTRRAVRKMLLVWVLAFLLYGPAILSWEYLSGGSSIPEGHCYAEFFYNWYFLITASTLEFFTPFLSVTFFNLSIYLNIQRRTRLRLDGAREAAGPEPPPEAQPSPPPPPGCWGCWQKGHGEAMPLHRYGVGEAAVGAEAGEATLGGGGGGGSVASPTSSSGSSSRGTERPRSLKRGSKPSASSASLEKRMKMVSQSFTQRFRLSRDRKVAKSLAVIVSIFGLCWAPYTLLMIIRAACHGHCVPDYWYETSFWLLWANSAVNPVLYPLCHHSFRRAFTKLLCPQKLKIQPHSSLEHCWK
UniProt P35367, whole entry: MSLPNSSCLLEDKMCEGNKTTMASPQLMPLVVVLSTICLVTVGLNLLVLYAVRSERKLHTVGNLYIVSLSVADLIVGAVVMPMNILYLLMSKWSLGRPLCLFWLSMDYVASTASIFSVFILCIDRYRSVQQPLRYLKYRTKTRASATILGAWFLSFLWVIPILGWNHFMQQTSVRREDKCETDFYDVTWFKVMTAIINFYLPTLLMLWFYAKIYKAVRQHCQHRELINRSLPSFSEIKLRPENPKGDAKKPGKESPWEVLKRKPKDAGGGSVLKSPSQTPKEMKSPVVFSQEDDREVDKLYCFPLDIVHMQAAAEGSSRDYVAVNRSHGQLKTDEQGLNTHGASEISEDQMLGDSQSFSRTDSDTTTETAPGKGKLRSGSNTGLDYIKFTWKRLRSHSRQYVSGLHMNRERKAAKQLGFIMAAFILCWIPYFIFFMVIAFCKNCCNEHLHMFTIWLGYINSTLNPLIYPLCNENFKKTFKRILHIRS

Legend:
[1] = target: T1, human histamine H3 receptor (Homo sapiens, UniProt Q9Y5N1); assay: Histamine H3 functional antagonist assay (method B); type: biochemical; conditions: [35S]GTPγS LeadSeeker SPA, CHO membranes, histamine at EC80, 384 well
T1 construct: expressed in transfected cells; host or cells: CHO K1 cells carrying the pSwitch regulatory plasmid, transfected with pGeneH3 and induced with mifepristone; clone 3H3; membranes prepared from these cells
Text: (§1) A membrane preparation containing histamine H3 receptors may be prepared in accordance with the following procedures:
DNA encoding the human histamine H3 gene (Huvar, A. et al. (1999) Mol. Pharmacol. 55(6), 1101-1107) was cloned into a holding vector, pCDNA3.1 TOPO (InVitrogen) and its cDNA was isolated from this vector by restriction digestion of plasmid DNA with the enzymes BamH1 and Not-1 and ligated into the inducible expression vector pGene (InVitrogen) digested with the same enzymes. The GeneSwitch™ system (a system where in transgene expression is switched off in the absence of an inducer and switched on in the presence of an inducer) was performed as described in U.S. Pat. Nos. 5,364,791; 5,874,534; and 5,935,934. Ligated DNA was transformed into competent DH5α E. coli host bacterial cells and plated onto Luria Broth (LB) agar containing Zeocin™ (an antibiotic which allows the selection of cells expressing the sh ble gene which is present on pGene and pSwitch) at 50 μg ml^−1. Colonies containing the re-ligated plasmid were identified by restriction analysis. DNA for transfection into mammalian cells was prepared from 250 ml cultures of the host bacterium containing the pGeneH3 plasmid and isolated using a DNA preparation kit (Qiagen Midi-Prep) as per manufacturers guidelines (Qiagen). […]
10-14 days post selection 10 nM Mifepristone (InVitrogen), was added to the culture medium to induce the expression of the receptor. […] Receptor bound antibody was detected by incubation of the cells for 60 minutes on ice with a goat anti rabbit antibody, conjugated with Alexa 488 fluorescence marker (Molecular Probes). Following two further washes with Sorting Medium, cells were filtered through a 50 μm Filcon™ (BD Biosciences) and then analysed on a FACS Vantage SE Flow Cytometer fitted with an Automatic Cell Deposition Unit. […]

human H1 receptor = target: T2, human H1 receptor (Homo sapiens, UniProt P35367); assay: Histamine H1 functional antagonist assay (method B); type: cell-based; conditions: FLIPR, Fluo-4, CHO cells expressing human H1, histamine at EC80
T2 construct: expressed in transfected cells; host or cells: Chinese hamster ovary cells stably expressing the human H1 receptor

[2] = target: T1, human histamine H3 receptor; assay: Histamine H3 functional antagonist assay (method C); type: biochemical; conditions: [35S]GTPγS LeadSeeker SPA, CHO membranes, histamine at EC80, 384 well, compound in DMSO
Text: as §1
DNA encoding the human histamine H3 gene (Huvar, A. et al. (1999) Mol. Pharmacol. 55(6), 1101-1107) was cloned into a holding vector, pCDNA3.1 TOPO (InVitrogen) and its cDNA was isolated from this vector by restriction digestion of plasmid DNA with the enzymes BamH1 and Not-1 and ligated into the inducible expression vector pGene (InVitrogen) digested with the same enzymes. The GeneSwitch™ system (a system where in transgene expression is switched off in the absence of an inducer and switched on in the presence of an inducer) was performed as described in U.S. Pat. Nos. 5,364,791; 5,874,534; and 5,935,934. Ligated DNA was transformed into competent DH5α E. coli host bacterial cells and plated onto Luria Broth (LB) agar containing Zeocin™ (an antibiotic which allows the selection of cells expressing the sh ble gene which is present on pGene and pSwitch) at 50 μg ml^−1. Colonies containing the re-ligated plasmid were identified by restriction analysis. DNA for transfection into mammalian cells was prepared from 250 ml cultures of the host bacterium containing the pGeneH3 plasmid and isolated using a DNA preparation kit (Qiagen Midi-Prep) as per manufacturers guidelines (Qiagen).
CHO K1 cells previously transfected with the pSwitch regulatory plasmid (InVitrogen) were seeded at 2×10e6 cells per T75 flask in Complete Medium, containing Hams F12 (GIBCOBRL, Life Technologies) medium supplemented with 10% v/v dialysed foetal bovine serum, L-glutamine, and hygromycin (100 μg ml^31 1), 24 hours prior to use. Plasmid DNA was transfected into the cells using Lipofectamine plus according to the manufacturers guidelines (InVitrogen). 48 hours post transfection cells were placed into complete medium supplemented with 500 μg ml^−1 Zeocin™.
10-14 days post selection 10 nM Mifepristone (InVitrogen), was added to the culture medium to induce the expression of the receptor. 18 hours post induction cells were detached from the flask using ethylenediamine tetra-acetic acid (EDTA; 1:5000; InVitrogen), following several washes with phosphate buffered saline pH 7.4 and resuspended in Sorting Medium containing Minimum Essential Medium (MEM), without phenol red, and supplemented with Earles salts and 3% Foetal Clone II (Hyclone). Approximately 1×10e7 cells were examined for receptor expression by staining with a rabbit polyclonal antibody, 4a, raised against the N-terminal domain of the histamine H3 receptor, incubated on ice for 60 minutes, followed by two washes in sorting medium. Receptor bound antibody was detected by incubation of the cells for 60 minutes on ice with a goat anti rabbit antibody, conjugated with Alexa 488 fluorescence marker (Molecular Probes). Following two further washes with Sorting Medium, cells were filtered through a 50 μm Filcon™ (BD Biosciences) and then analysed on a FACS Vantage SE Flow Cytometer fitted with an Automatic Cell Deposition Unit. Control cells were non-induced cells treated in a similar manner. Positively stained cells were sorted as single cells into 96-well plates, containing Complete Medium containing 500 μg ml^−1 Zeocin™ and allowed to expand before reanalysis for receptor expression via antibody and ligand binding studies. One clone, 3H3, was selected for membrane preparation.
All steps of the protocol are carried out at 4° C. and with pre-cooled reagents. The cell pellet is resuspended in 10 volumes of homogenisation buffer (50 mM N-2-hydroxyethylpiperazine-N′-2-ethanesulfonic acid (HEPES), 1 mM ethylenediamine tetra-acetic acid (EDTA), pH 7.4 with KOH, supplemented with 10e-6M leupeptin (acetyl-leucyl-leucyl-arginal; Sigma L2884), 25 μg/ml bacitracin (Sigma B0125), 1 mM phenylmethylsulfonyl fluoride (PMSF) and 2×10e-6M pepstain A (Sigma)). The cells are then homogenised by 2×15 second bursts in a 1 litre glass Waring blender, followed by centrifugation at 500 g for 20 minutes. […]

| Structure (SMILES) | antagonism pKb, histamine H3 functional antagonist assay (method B) [1] | antagonism pKb, histamine H1 functional antagonist assay (method B) (human H1 receptor) | antagonism pKb, histamine H3 functional antagonist assay (method C) [2] |
| --- | --- | --- | --- |
| c1ccc(Oc2ccc3c(c2)CCN(CC2CC2)CC3)cc1 [Example E21, 3-(Cyclopropylmethyl)-7-(phenyloxy)-2,3,4,5-tetrahydro-1H-3-benzazepine] | > 7 pKb | – | – |
| c1cc2c(cc1OC1CCNCC1)CCN(CC1CC1)CC2 [Example E26, 3-(Cyclopropylmethyl)-7-(4-piperidinyloxy)-2,3,4,5-tetrahydro-1H-3-benzazepine] | > 7 pKb | < 6.5 pKb | – |
| CC(C)(C)OC(=O)N1CCC(Oc2ccc3c(c2)CCN(CC2CC2)CC3)CC1 [Example E25, 1,1-Dimethylethyl 4-{[3-(cyclopropylmethyl)-2,3,4,5-tetrahydro-1H-3-benzazepin-7-yl]oxy}-1-piperidinecarboxylate] | > 7 pKb | – | – |
| O=C(C1CCOCC1)N1CCC(COc2ccc3c(c2)CCN(CC2CC2)CC3)CC1 [Example E9, 3-(Cyclopropylmethyl)-7-({[1-(tetrahydro-2H-pyran-4-ylcarbonyl)-4-piperidinyl]methyl}oxy)-2,3,4,5-tetrahydro-1H-3-benzazepine] | – | < 6.5 pKb | > 7 pKb |
| O=C1CCCN1c1ccc(Oc2ccc3c(c2)CCN(CC2CCC2)CC3)nc1 [Example E16, 1-(6-{[3-(Cyclobutylmethyl)-2,3,4,5-tetrahydro-1H-3-benzazepin-7-yl]oxy}-3-pyridinyl)-2-pyrrolidinone] | – | < 6.5 pKb | > 7 pKb |
| O=C1CCCN1c1ccc(Oc2ccc3c(c2)CCN(CC2CC2)CC3)cn1 [Example E28, 1-(5-{[3-(Cyclopropylmethyl)-2,3,4,5-tetrahydro-1H-3-benzazepin-7-yl]oxy}-2-pyridinyl)-2-pyrrolidinone] | – | < 6.5 pKb | > 7 pKb |
